Assay results taken from PubChem BioAssay AID493014 (National Center for Advancing Translational Sciences (NCATS), 2011).
The list shows a part of the results. Further columns of the screen follow, without active or inactive calls. Most of these compounds were active or inconclusive in the main read-out, so they are no random draw. Potencies come from curve fits of mixed quality, noted in brackets.

Experiment: qHTS Assay to Find Inhibitors of Chronic Active B-Cell Receptor Signaling
Conditions: ABC-DLBCL IkBa-CBG/CBR reporter, luminescence ratio (green luciferase fused to IkBa over red control in TMD8 lymphoma cells), 4 h
In short: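 Compounds up to 46 uM were incubated four hours with TMD8 cells whose green CBG68 luciferase is fused to IkappaBalpha; red CBR luminescence normalised the signal, and concentration-effect curves were fitted to fusion, red and ratio data.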

[1] = measured here: CBR red luminescence, cell number
[2] = measured here: IkBa-CBG green luminescence

Compound	AC50 [1]	AC50 [2]
NC(=S)N/N=C1\CCOc2ccc(Cl)cc21	35.5 µM [falling, single point]	–
O=C(Nc1ncc(S(=O)(=O)c2ccc([N+](=O)[O-])cc2)s1)c1cccc2ccccc12	0.731 µM [falling, full curve, poor fit]	–
CCn1c(SCC(=O)c2ccc(O)c(O)c2)nnc1-c1ccc(C)cc1	35.5 µM [falling, single point]	–
COc1cccc(Nc2cc(C)c3ccccc3n2)c1	1 µM [rising, full curve, poor fit]	–
CC(C)(C)NC(=O)Nc1nnc(SCC(=O)NC2CCCCC2)s1	2.91 µM [rising, single point]	–
COC(=O)c1[nH]c2ccc(C)cc2c1NC(=O)Oc1ccccc1	20.6 µM [falling, partial curve, poor fit]	–
O=C(O)CCCCNCc1ccccc1	3.66 µM [falling, single point]	–
NNc1nc(-c2ccccc2)c2cc(Br)ccc2n1	10 µM [falling, partial curve, poor fit]	–
O=C(NCCc1ccccc1)c1ccnc(/C=N/O)c1	16.4 µM [falling, single point]	–
Cc1ccnc(NC(=O)c2cccc(NC(=O)CC3SC(N4CCCCC4)=NC3=O)c2)c1 (centres undefined)	6.51 µM [falling, partial curve, poor fit]	–
Nc1nc2nc(-c3ccc(F)cc3)cc(C(F)(F)F)n2n1	7.94 µM [rising, partial curve, poor fit]	–
CCc1ccc(C2CC(c3cccc(OC)c3)n3nc(N)nc3N2)cc1 (centres undefined)	29.1 µM [rising, single point]	–
Cc1ccc(S(=O)(=O)NCCc2sc3nc(-c4ccccc4)nn3c2C)cc1C	–	7.08 µM [rising, partial curve, poor fit]
CCCCOc1ccc(C(=O)Nc2ccncc2)cc1	0.58 µM [falling, full curve]	0.92 µM [rising, full curve, poor fit]
COc1ccc(C(CNC(=O)c2cc(SC)ccc2Cl)N(C)C)cc1 (centres undefined)	22.4 µM [falling, single point]	–
O=C(Nc1nnc(-c2ccc3c(c2)CCCC3)o1)c1ccccc1Cl	8.2 µM [falling, partial curve, poor fit]	–
O=C(Nc1ccon1)c1cccc(S(=O)(=O)N2CCCCC2)c1	35.5 µM [falling, single point]	–
COc1cccc(NC(=O)COC(=O)c2ccccc2C(=O)N2CCN(c3ccccc3)CC2)c1	28.2 µM [falling, partial curve, poor fit]	–
CCN(CC)S(=O)(=O)c1cccc(-c2n[nH]c(=S)n2/N=C/c2ccc(OC(F)F)cc2)c1	11.6 µM [rising, partial curve, poor fit]	–
O=C(CCNC(=O)Cn1ccc2ccccc2c1=O)NCCN1CCc2ccccc2C1	6.51 µM [rising, single point]	–
COC(=O)c1ccc(S(=O)(=O)N2CCCCC2)o1	29.1 µM [rising, single point]	–

Sorted by length of the SMILES (descending): some entries from above.
Compound	AC50 [1]	AC50 [2]
Cc1ccc(S(=O)(=O)NCCc2sc3nc(-c4ccccc4)nn3c2C)cc1C	–	7.08 µM [rising, partial curve, poor fit]
O=C(CCNC(=O)Cn1ccc2ccccc2c1=O)NCCN1CCc2ccccc2C1	6.51 µM [rising, single point]	–
COc1cccc(Nc2cc(C)c3ccccc3n2)c1	1 µM [rising, full curve, poor fit]	–

Remaining list, next part

Compound	AC50 [1]	AC50 [2]
Cc1ccc(-c2csc(-c3cc(C)on3)n2)cc1	17.8 µM [rising, partial curve, poor fit]	–
Cc1ccc(CNS(=O)(=O)c2ccc(C(C)(C)C)cc2)n1C	6.51 µM [falling, single point]	–
COc1ccc(C2N(Cc3ccccc3)CCN2Cc2ccccc2)cc1[N+](=O)[O-]	14.1 µM [falling, partial curve, poor fit]	–
O=C(OCc1cccc([N+](=O)[O-])c1)c1ccncc1	35.5 µM [rising, single point]	–
NNC(=O)c1ccc(COc2ccc(Br)cc2)o1	35.5 µM [falling, single point]	–
N#Cc1c(N)nc(SCc2ccccc2)c(C#N)c1-c1ccco1	10 µM [falling, partial curve, poor fit]	–
CN1CCN(C2=Nc3cc(Cl)ccc3Nc3ccccc32)CC1	35.5 µM [falling, single point]	–
CC(C)N(C)Cc1cn(C)nc1-c1ccc(Oc2ccccc2)cc1	35.5 µM [rising, single point]	–
O=C(CCl)N(Cc1cccc([N+](=O)[O-])c1)c1cccc(Cl)c1	20 µM [falling, partial curve, poor fit]	5.01 µM [rising, partial curve, poor fit]
CCOc1ccccc1-n1c(COc2ccc(C)cc2)nnc1SCC(N)=O	0.184 µM [falling, full curve, poor fit]	–
Cc1cc(C)nc(NC(=O)c2ccccc2O)n1	5.62 µM [falling, full curve, poor fit]	–
COc1ccc(-c2[nH]c(-c3ccc(F)cc3)nc2SCC(=O)NCc2ccco2)cc1OC	1.58 µM [rising, full curve, poor fit]	–
O/N=C1\CCCCc2ccccc21	35.5 µM [falling, single point]	–
COc1ccc(C)cc1NC(=O)c1cnc2n(c1=O)CCS2	4.61 µM [rising, single point]	–
CCCCNC(=O)CC1N=C2c3ccccc3N=C(SCC(=O)Nc3cccc(C)c3)N2C1=O (centres undefined)	28.2 µM [rising, single point]	–
CN(C)CCn1c2c(c(SCC(=O)Nc3nccs3)nc1=O)CCCC2	10.3 µM [falling, partial curve]	–
CCc1ccc(/C=N/NC(=O)c2cc(-c3ccncc3)nc3ccccc23)s1	6.51 µM [rising, full curve]	8.2 µM [falling, partial curve]
CC(C)c1cc(C(=O)Nc2cccnc2)no1	9.2 µM [falling, partial curve]	–
CCOC(=O)c1c(/N=C/c2cccc([N+](=O)[O-])c2O)sc2c1CCC2	17.8 µM [falling, partial curve, poor fit]	–
CCc1ccc(Nc2nnc(SCC(=O)N(C)C3CCS(=O)(=O)C3)s2)cc1 (centres undefined)	8.91 µM [falling, partial curve, poor fit]	–
